Data set [1] can be described thus: Multilayer film ML-A, stepped exposure, KODAK FLEXICOLOR (C-41) process. Particulars: for Granularity: green layer, neutral exposure, RMS.
Data set [2] can be described thus: Multilayer film ML-B, stepped exposure, KODAK FLEXICOLOR (C-41) process.
Data set [3] is described as follows: Multilayer film ML-C, Kodak ECN-2 Process. Particulars: added to Layer 6 at 0.022, check ML-C-1.
[4] abbreviates: addenda in L7/L8 at 0.8 mmol/molAg, DIR-3 in L10/L11, check ML-A-1.
The mark [5] stands for this setting: addenda in L7/L8 at 0.8 mmol/molAg, DIR-4 in L10/L11, check ML-A-2.
[6] abbreviates: addenda in L7/L8 at 8 mmol/molAg, DIR-3 in L10/L11, check ML-A-1.
[7] abbreviates: addenda in L7/L8 at 8 mmol/molAg, DIR-4 in L10/L11, check ML-A-2.
[8] abbreviates: addenda in L7/L8 at 8 mmol/molAg, DIR-3 in L10/L11.
[9] abbreviates: addenda in L7/L8 at 8 mmol/molAg, DIR-4 in L10/L11.
[10] abbreviates: Layer 9, solid particle dispersion, N,N-dibutyllauramide added as separate dispersion at 0.135, check ML-B-1.
The mark [11] stands for this setting: Layer 9 at 0.082 mmol/m^2 (6.8 mmol/mol silver), dispersed in three times own weight of N,N-dibutyllauramide, check ML-B-1.
[12] abbreviates: Layer 9 at 0.082 mmol/m^2, dispersed in three times own weight of N,N-dibutyllauramide.
[13] abbreviates: Layer 9 at 0.082 mmol/m^2, dispersed in three times own weight of N,N-dibutyllauramide, check ML-B-1.
[14] abbreviates: Layer 9 at 0.082 mmol/m^2, dispersed in twice own weight of N,N-dibutyllauramide.
Setting [15] is: Layer 9 at 0.082 mmol/m^2, dispersed in twice own weight of N,N-dibutyllauramide, check ML-B-1.
The mark [16] stands for this setting: Layer 9, dispersed in twice own weight of (Z)-9-octadecen-1-ol, check ML-B-1.
Where [17] appears, read: Layer 9, dispersed in twice own weight of ortho-methylphenyl benzoate, check ML-B-1.
Setting [18] is: added to Layer 10 (Yellow filter layer) at 0.029 g/m^2, check ML-B-1.

With `CCCCCCCCCCCCCCOc1ncnc2nc[nH]c12` [A, 6-(tetradecyloxy)purine], the “Speed of G Only vs check” value in data set [1] (setting [4]) was found to be 0.00 stops; in data set [1] (setting [5]) it was 0.04 stops; in data set [1] (setting [6]) it was 0.31 stops; in data set [1] (setting [7]), 0.30 stops. Besides, the “Speed of Neutral vs check” value in data set [1] (setting [4]) was determined as 0.13 stops; in data set [1] (setting [5]), 0.07 stops; in data set [1] (setting [6]), 0.43 stops; in data set [1] (setting [7]) it was 0.50 stops. Also, the Granularity is given as 15.4 × 10^3 in data set [1] (addenda in L7/L8 at 0.8 mmol/molAg, DIR-3 in L10/L11); 16.6 × 10^3 in data set [1] (addenda in L7/L8 at 0.8 mmol/molAg, DIR-4 in L10/L11); 14.9 × 10^3 in data set [1] (setting [8]); 15.5 × 10^3 in data set [1] (setting [9]); 19.3 ×10^3 in data set [2] (Layer 9, solid particle dispersion, N,N-dibutyllauramide added as separate dispersion at 0.135); 18.3 ×10^3 in data set [2] (setting [12]). Further, the “Speed of G Only” value in data set [2] (setting [10]) came to 0.27 stops; in data set [2] (setting [13]), 0.37 stops. Also, the “Speed of Neutral” value in data set [2] (setting [10]) is 0.30 stops; in data set [2] (setting [11]), 0.37 stops; in data set [3], 0.19 stops.
Regarding `CCCCCCCCCCOc1ncnc2[nH]cnc12` [CC-1, reference compound], the “Speed of G Only vs check” value in data set [1] (setting [6]) was −0.73 stops; in data set [1] (setting [7]), −0.76 stops. Further, the “Speed of Neutral vs check” value was −0.83 stops in data set [1] (setting [6]) and −1.57 stops in data set [1] (setting [7]). Moreover, the Granularity in data set [1] (setting [8]) is 12.6 × 10^3; in data set [1] (setting [9]) it was 9.4 × 10^3; in data set [2] (setting [12]) it was 23.4 ×10^3. In addition, the “Speed of Neutral” value in data set [2] (setting [11]) is given as −0.20 stops. The “Speed of G Only” value in data set [2] (setting [13]) is recorded as −0.17 stops.
On to `CCCCCCCCCCCC(=O)Nc1cccc(-n2nnnc2S)c1` [CC-21, reference compound], for which the Granularity in data set [2] (setting [14]) is listed as 17.5 ×10^3. Further, in data set [2] (setting [15]), the “Speed of G Only” value is reported as −0.80 stops and the “Speed of Neutral” value is recorded as −0.77 stops.
Take `CCCCCCCCCCOc1ccc(-c2nnn[nH]2)cc1` [CC-22, reference compound]: in data set [2] (setting [15]), the “Speed of G Only” value is recorded as −0.17 stops and the “Speed of Neutral” value was −0.07 stops.
Take `CCCCCCCCCCCCSc1nnc(S)s1` [CC-23, reference compound]: the Granularity in data set [2] (setting [14]) is listed as 17.5 ×10^3. In addition, in data set [2] (setting [15]), the “Speed of G Only” value is −0.07 stops and the “Speed of Neutral” value is on record as −0.07 stops.
As to `CCCCCCCCCCCCOc1ccc(-c2nnc(S)o2)cc1` [CC-24, reference compound], the Granularity in data set [2] (setting [14]) is 17.9 ×10^3. Moreover, in data set [2] (setting [15]), the “Speed of G Only” value was 0.00 stops and the “Speed of Neutral” value turned out to be 0.03 stops.
Take `CCCCCCCCCCCCCCCCCCOc1ccc(-c2nnn[nH]2)cc1` [CC-25, reference compound]: the Granularity in data set [2] (setting [14]) was 28.1 ×10^3. In addition, in data set [2] (setting [15]), the “Speed of G Only” value is listed as −0.03 stops and the “Speed of Neutral” value is 0.00 stops.
Taken in the same sequence, the figures for `CCCCCC(=O)OCc1n[nH]nc1-c1ccccc1` [CC-26, reference compound] were 17.4 ×10^3, −0.60 stops and −0.57 stops.
Consider `CCC(Oc1ccc(C(C)(C)CC)cc1C(C)(C)CC)C(=O)Nc1ccc2[nH]cnc2c1` (stereo not drawn) [CC-27, reference compound], for which the Granularity in data set [2] (setting [14]) is 20.9 ×10^3. For the same compound, in data set [2] (setting [15]), the “Speed of G Only” value amounted to 0.03 stops and the “Speed of Neutral” value was −0.10 stops.
Take `CCCCCCCCCC(CCCC)Oc1ncnc2[nH]cnc12` (stereo not drawn) [C]: in data set [2] (setting [11]), the “Speed of Neutral” value is listed as 0.37 stops. For the same compound, the Granularity in data set [2] (setting [12]) is 20.8 ×10^3. In addition, the “Speed of G Only” value in data set [2] (setting [13]) is listed as 0.37 stops.
For `CCCCCCCCCCCCCCCCSc1ncnc2[nH]cnc12` [J], the “Speed of Neutral” value in data set [2] (setting [11]) came out at 0.37 stops. Moreover, in data set [2] (setting [12]), the Granularity is listed as 20.9 ×10^3. Moreover, the “Speed of G Only” value in data set [2] (setting [13]) is given as 0.37 stops.
As for `CCCCCCCCCCCCCCOc1ncnc2[nH]ncc12` [O], in data set [2] (setting [11]), the “Speed of Neutral” value was 0.13 stops. Further, the Granularity in data set [2] (setting [12]) is recorded as 16.8 ×10^3. The “Speed of G Only” value in data set [2] (setting [13]) came out at 0.17 stops.
For the compound `CCCCCCCCCN(CCCCCCCCC)c1ncnc2[nH]cnc12` [U], the “Speed of Neutral” value in data set [2] (setting [11]) was 0.13 stops. The Granularity in data set [2] (setting [12]) is reported as 21.0 ×10^3. For the same compound, the “Speed of G Only” value in data set [2] (setting [13]) was 0.20 stops.
Consider `CCCCCCCCC(CCCCCC)CCc1ncnc2[nH]cnc12` (stereo not drawn) [X], for which the Granularity in data set [2] (Layer 9, dispersed in twice own weight of (Z)-9-octadecen-1-ol) is 20.2 ×10^3; in data set [2] (Layer 9, dispersed in twice own weight of ortho-methylphenyl benzoate) it was 18.6 ×10^3; in data set [2] (setting [12]), 20.1 ×10^3; in data set [2] (setting [14]), 18.9 ×10^3; in data set [2] (Layer 9 at 0.082 mmol/m^2, M-1 in Layer 9 replaced with M-12 at 0.054 (ML-B-56 without addenda gives 19.0)), 19.3 ×10^3; in data set [2] (added to Layer 10 (Yellow filter layer) at 0.029 g/m^2), 18.7 ×10^3. The “Speed of G Only” value in data set [2] (setting [16]) is given as 0.17 stops; in data set [2] (setting [17]), 0.03 stops; in data set [2] (setting [13]), 0.27 stops; in data set [2] (setting [15]), 0.27 stops; in data set [2] (Layer 9 at 0.082 mmol/m^2, M-1 in Layer 9 replaced with M-12 at 0.054 (ML-B-56 without addenda gives 0.00)) it was 0.10 stops; in data set [2] (setting [18]) it was 0.13 stops. Moreover, the “Speed of Neutral” value in data set [2] (setting [16]) is 0.17 stops; in data set [2] (setting [17]), 0.00 stops; in data set [2] (setting [11]), 0.27 stops; in data set [2] (setting [15]), 0.23 stops; in data set [2] (Layer 9 at 0.082 mmol/m^2, M-1 in Layer 9 replaced with M-12 at 0.054 (ML-B-56 without addenda gives 0.03)), 0.10 stops; in data set [2] (setting [18]), 0.07 stops.
As for `CCCCCCCCCCCCCCCCOc1ncnc2[nH]cnc12` [Y], the “Speed of Neutral” value in data set [2] (setting [11]) was 0.40 stops. Further, in data set [2] (setting [12]), the Granularity is given as 20.1 ×10^3. In addition, the “Speed of G Only” value in data set [2] (setting [13]) came to 0.40 stops.
Consider `CCCCCCCCCCCCCCCCCCOc1ncnc2[nH]cnc12` [Z], for which, in data set [2] (setting [11]), the “Speed of Neutral” value was 0.40 stops. For the same compound, the Granularity in data set [2] (setting [12]) is 20.9 ×10^3. For the same compound, the “Speed of G Only” value in data set [2] (setting [13]) is recorded as 0.43 stops.
